Structures were worked out from names or drawings and are uncertain.
Columns and labels:
human TLR8 = human TLR8 (Homo sapiens, UniProt Q9NR97); test: TLR8 inhibition reporter assay (HEK-Blue cells, SEAP reporter); settings: read-out: TLR8 IC50; HEK-Blue cells overexpressing human TLR8; stimulated with R848 15.9 μM; SEAP read after 22 hour; dose range 0.05 nM-50 μM
Method: (§1) HEK-Blue™-cells (Invivogen) overexpressing human TLR7, TLR8 or TLR9 receptors were used for screening inhibitors of these receptors using an inducible SEAP (secreted embryonic alkaline phosphatase) reporter gene under the control of the IFN-β minimal promoter fused to five NF-κB and AP-1-binding sites. Briefly, cells are seeded into Greiner 384 well plates (15000 cells per well for TLR7, 20,000 for TLR8 and 25,000 for TLR9) and then treated with test compounds in DMSO to yield a final dose response concentration range of 0.05 nM-50 μM. After a 30 minute compound pre-treatment at room temperature, the cells are then stimulated with a TLR7 ligand (gardiquimod at a final concentration of 7.5 μM), TLR8 ligand (R848 at a final concentration of 15.9 μM) or TLR9 ligand (ODN2006 at a final concentration of 5 nM) to activate NF-κB and AP-1 which induce the production of SEAP. After a 22 hour incubation at 37° C., 5% CO2, SEAP levels are determined with the addition of HEK-Blue™ Detection reagent (Invivogen), a cell culture medium that allows for detection of SEAP, according to manufacturer's specifications. The percent inhibition is determined as the % reduction in the HEK-Blue signal present in wells treated with agonist plus DMSO alone compared to wells treated with a known inhibitor.

Chains of the proteins cited; added tags and fusions are not shown. Residues count along the entry.
UniProt Q9NR97, 27-1041 limits assumed: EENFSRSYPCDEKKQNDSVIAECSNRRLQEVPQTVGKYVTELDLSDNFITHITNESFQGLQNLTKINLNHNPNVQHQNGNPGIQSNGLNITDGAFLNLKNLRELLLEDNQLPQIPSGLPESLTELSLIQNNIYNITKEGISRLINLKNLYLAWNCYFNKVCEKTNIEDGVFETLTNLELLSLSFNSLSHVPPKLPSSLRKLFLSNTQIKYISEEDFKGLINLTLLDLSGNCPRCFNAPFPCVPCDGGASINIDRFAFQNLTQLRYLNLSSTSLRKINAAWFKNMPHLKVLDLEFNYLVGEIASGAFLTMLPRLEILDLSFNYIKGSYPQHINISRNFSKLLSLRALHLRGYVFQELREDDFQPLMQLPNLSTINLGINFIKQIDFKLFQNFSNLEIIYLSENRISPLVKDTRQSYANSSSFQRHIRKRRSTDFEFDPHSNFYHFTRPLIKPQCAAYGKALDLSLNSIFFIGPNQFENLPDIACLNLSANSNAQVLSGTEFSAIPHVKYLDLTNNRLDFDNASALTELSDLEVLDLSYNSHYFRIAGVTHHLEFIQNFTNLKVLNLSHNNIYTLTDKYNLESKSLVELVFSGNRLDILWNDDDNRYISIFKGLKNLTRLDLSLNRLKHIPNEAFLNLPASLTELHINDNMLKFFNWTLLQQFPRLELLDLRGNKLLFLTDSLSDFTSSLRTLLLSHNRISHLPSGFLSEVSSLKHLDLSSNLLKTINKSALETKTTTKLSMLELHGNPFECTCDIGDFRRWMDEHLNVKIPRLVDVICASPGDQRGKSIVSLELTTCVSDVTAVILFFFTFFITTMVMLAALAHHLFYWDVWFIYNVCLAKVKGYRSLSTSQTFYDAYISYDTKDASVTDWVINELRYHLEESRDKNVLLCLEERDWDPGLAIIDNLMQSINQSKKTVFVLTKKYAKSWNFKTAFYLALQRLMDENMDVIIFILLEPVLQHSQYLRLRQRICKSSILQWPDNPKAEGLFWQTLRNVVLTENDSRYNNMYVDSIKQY
UniProt Q9NYK1, 27-1049 limits assumed: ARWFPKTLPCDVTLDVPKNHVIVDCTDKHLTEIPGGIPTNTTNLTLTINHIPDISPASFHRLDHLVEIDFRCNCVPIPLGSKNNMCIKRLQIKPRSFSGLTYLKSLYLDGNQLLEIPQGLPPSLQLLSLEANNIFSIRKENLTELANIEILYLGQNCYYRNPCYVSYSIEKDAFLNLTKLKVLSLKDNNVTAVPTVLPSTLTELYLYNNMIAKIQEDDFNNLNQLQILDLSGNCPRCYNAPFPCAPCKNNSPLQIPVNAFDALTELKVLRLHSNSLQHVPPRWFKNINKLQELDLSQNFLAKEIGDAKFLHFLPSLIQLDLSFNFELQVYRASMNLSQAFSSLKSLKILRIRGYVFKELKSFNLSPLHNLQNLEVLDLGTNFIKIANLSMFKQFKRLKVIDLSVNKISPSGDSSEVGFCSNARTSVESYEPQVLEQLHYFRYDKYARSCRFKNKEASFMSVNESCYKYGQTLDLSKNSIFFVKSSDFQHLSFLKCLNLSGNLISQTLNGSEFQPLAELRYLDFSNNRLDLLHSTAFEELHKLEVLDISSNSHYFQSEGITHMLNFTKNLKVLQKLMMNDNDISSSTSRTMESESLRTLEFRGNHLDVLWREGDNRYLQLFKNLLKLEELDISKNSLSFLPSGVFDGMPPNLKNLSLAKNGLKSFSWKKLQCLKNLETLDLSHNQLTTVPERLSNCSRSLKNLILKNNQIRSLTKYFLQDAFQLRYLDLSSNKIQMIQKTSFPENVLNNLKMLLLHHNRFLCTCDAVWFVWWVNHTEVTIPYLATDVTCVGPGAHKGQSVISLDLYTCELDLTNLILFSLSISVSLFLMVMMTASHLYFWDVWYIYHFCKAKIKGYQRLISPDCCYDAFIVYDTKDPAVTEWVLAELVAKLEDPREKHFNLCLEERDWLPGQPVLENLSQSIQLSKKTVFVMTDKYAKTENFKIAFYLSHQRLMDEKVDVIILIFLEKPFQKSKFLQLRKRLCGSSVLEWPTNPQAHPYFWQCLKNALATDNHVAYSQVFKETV
UniProt Q9NR96, 26-1032 limits assumed: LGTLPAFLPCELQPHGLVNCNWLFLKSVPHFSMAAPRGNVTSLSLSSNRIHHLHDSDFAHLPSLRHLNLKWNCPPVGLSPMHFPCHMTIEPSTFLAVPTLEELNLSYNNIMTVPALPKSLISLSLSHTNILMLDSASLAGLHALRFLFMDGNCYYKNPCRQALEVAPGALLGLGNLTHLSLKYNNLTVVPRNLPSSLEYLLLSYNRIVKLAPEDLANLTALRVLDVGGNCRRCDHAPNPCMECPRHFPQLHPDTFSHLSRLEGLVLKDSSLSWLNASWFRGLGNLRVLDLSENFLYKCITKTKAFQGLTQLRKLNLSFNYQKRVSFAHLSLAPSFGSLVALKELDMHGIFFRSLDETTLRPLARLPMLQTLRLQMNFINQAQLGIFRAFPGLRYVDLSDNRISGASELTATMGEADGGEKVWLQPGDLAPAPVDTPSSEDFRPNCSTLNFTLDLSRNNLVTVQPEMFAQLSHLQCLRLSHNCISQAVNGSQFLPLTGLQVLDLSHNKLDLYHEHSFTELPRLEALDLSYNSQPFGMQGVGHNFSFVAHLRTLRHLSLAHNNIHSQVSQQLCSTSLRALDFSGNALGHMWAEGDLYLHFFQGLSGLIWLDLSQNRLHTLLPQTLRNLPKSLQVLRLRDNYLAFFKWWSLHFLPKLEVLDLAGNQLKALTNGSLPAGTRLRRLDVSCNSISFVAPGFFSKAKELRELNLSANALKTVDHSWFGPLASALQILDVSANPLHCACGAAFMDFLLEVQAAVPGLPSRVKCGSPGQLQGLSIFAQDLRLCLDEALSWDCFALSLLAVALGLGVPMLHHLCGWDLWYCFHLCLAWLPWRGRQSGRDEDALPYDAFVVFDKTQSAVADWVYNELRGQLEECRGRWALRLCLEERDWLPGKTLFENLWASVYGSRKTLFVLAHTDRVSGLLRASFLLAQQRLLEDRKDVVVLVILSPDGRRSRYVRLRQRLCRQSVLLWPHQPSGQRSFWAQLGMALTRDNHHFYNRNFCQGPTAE

human TLR7 = human TLR7 (Homo sapiens, UniProt Q9NYK1); test: TLR7 inhibition reporter assay (HEK-Blue cells, SEAP reporter); settings: read-out: TLR7 IC50; HEK-Blue cells overexpressing human TLR7; stimulated with gardiquimod 7.5 μM; SEAP read after 22 hour; dose range 0.05 nM-50 μM
Method: as §1

human TLR9 = human TLR9 (Homo sapiens, UniProt Q9NR96); test: TLR9 inhibition reporter assay (HEK-Blue cells, SEAP reporter); settings: read-out: TLR9 IC50; HEK-Blue cells overexpressing human TLR9; stimulated with ODN2006 5 nM; SEAP read after 22 hour; dose range 0.05 nM-50 μM
Method: as §1

Row | Structure (SMILES) | IC50 (human TLR8) | IC50 (human TLR7) | IC50 (human TLR9)
1 | CC(C)N1CCN(c2ccc(-c3ccc4[nH]c(=O)c(-c5ccc(NS(C)(=O)=O)cc5)cc4c3)cc2)CC1 | ≥ 50 µM | 17.5 µM | 0.171 µM
2 | CC(C)N1CCN(c2ccc(-c3ccc4c(c3)cc(-c3ccc(NC(=O)C(C)(C)O)cc3)c(=O)n4C)cc2)CC1 | – | – | 0.652 µM

From patent US20260183275A1, “SUBSTITUTED QUINOLONE COMPOUNDS USEFUL AS INHIBITORS OF TLR9” (Bristol-Myers Squibb Company, priority 2022, published 2026)
